# Hit rate of the full screen: of about 78,000 compounds, about 1,800 (2.3%) were called active. The shares of active, inactive and inconclusive entries below differ from those in the screen. Cut-off read from the data, not from the text of the source: active = inhibition above about 30%; inconclusive = mostly about 10% to 28%; inactive = weaker than that.
# Amino acid sequences for entries named in this document (tags omitted). A change or cut given only in a name is not applied to a line headed by its entry.
# UniProt Q01638: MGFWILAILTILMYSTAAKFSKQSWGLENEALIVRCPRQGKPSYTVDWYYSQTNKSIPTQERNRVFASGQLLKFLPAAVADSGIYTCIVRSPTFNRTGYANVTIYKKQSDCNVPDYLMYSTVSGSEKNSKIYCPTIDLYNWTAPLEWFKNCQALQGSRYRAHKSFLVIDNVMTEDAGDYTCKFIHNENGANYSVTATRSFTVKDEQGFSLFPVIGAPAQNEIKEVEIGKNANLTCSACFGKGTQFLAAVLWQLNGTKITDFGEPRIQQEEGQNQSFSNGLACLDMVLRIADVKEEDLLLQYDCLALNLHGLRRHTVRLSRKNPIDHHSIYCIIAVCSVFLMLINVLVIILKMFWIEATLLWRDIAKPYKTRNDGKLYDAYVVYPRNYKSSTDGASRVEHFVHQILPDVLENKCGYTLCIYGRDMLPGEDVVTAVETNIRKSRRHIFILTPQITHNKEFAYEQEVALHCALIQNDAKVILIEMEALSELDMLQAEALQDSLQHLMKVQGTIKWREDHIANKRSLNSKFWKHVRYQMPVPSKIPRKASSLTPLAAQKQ
# Molecular target: Interleukin-1 receptor-like 1 (Homo sapiens) (UniProt Q01638)
# Assay: inhibitors of human ST2 (IL1RL1) binding to IL-33, primary screen, biochemical, AlphaLISA (AID 1259354)
# Details: AlphaLISA ST2-Fc/biotin-IL-33 interaction, 1 h; at 17 µM, active compounds read high
row,Structure (SMILES),inhibition
1,C=C[C@H]1CN2CC[C@H]1C[C@@H]2CNC(=O)c1ccc(N(C)C)cc1,inconclusive: 13%
2,S=C(NCCN1CCOCC1)NC[C@H]1C[C@@H]2CCN1C[C@@H]2CN1CCN(c2ccccc2)CC1,inconclusive: 13%
3,CC(Nc1ccc([N+](=O)[O-])c2cccnc12)c1ccc(Br)cc1 (configuration not stated),active: 40%
4,O=C(Nc1ccc2n(c1=O)C[C@H]1C[C@@H]2CN(C(=O)Cc2cccs2)C1)c1ccco1,inactive
5,COc1cccc(N2CCN(Cc3ccc([N+](=O)[O-])cc3)CC2)c1,inconclusive: 16%
6,C=CC/C=C\C/C=C\CCCCCCCc1cc(O)cc(O)c1,inconclusive: 22%
7,CN(C)c1ccc(CN2CCN(c3ccccc3Cl)CC2)cc1,inconclusive: 14%
8,O=C(Cn1nc(-c2ccccc2)ccc1=O)N1CCC2(CC1)OCCO2,inconclusive: 10%
9,O=C(c1cccs1)N1C[C@@H]2C[C@H](C1)c1c(-c3ccc(Cl)cc3)ccc(=O)n1C2,inconclusive: 12%
10,CN1[C@H]2CC[C@@H]1CN(c1cc(Sc3cccs3)nc(N)n1)CC2,inconclusive: 15%
11,Cn1cnc(CCN)c1,inconclusive: 11%
12,CC(Cc1ccccn1)NCc1ccc2[nH]c3c(c2c1)CCCC3 (configuration not stated),inconclusive: 24%
13,CCCNC(=O)CN1CCCN(Cc2ccccc2)S1(=O)=O,inactive
14,CN(Cc1ccccc1)Cc1cn(C[C@H]2C[C@@H]3CCN2C[C@@H]3C(=O)N2CCOCC2)nn1,inconclusive: 12%
15,O[C@@]1(Cn2ccc3cccnc32)CCCN2CCCC[C@@H]21,inconclusive: 19%
16,CCOC(=O)Cc1csc(NC(=O)c2cccn(Cc3cc(C)ccc3C)c2=O)n1,inconclusive: 22%
17,OCCN1CCN(Cc2ccc(Cl)cc2Cl)CC1,inconclusive: 15%
18,N#Cc1ccc(C(=O)N2C[C@@H]3C[C@H](C2)c2c(-c4cccs4)ccc(=O)n2C3)cc1,inconclusive: 11%
19,CC(C)CNC(=S)NC[C@H]1C[C@@H]2CCN1C[C@@H]2c1cc(C2CCCCC2)nn1C,inconclusive: 10%

# Fetched by structure from the entries so far, four records:
row,Structure (SMILES),inhibition
3,CC(Nc1ccc([N+](=O)[O-])c2cccnc12)c1ccc(Br)cc1 (configuration not stated),active: 40%
19,CC(C)CNC(=S)NC[C@H]1C[C@@H]2CCN1C[C@@H]2c1cc(C2CCCCC2)nn1C,inconclusive: 10%
6,C=CC/C=C\C/C=C\CCCCCCCc1cc(O)cc(O)c1,inconclusive: 22%
10,CN1[C@H]2CC[C@@H]1CN(c1cc(Sc3cccs3)nc(N)n1)CC2,inconclusive: 15%

# Following part.

row,Structure (SMILES),inhibition
1,COc1ccc(CN2CCN(c3ccccc3C)CC2)cc1,inconclusive: 22%
2,CN(Cc1ccccc1)Cc1cn(C[C@H]2CC3CCN2C[C@@H]3C(=O)NC2CC2)nn1 (some centres not stated),inconclusive: 21%
3,O=C(Nc1ccccc1)[C@H]1CN2CC[C@H]1C[C@@H]2Cn1cc(CCO)nn1,inconclusive: 24%
4,Fc1ccc(N2CCN(Cc3ccc(Cl)cc3)CC2)cc1,inconclusive: 21%
5,COc1ccc(OC)c(S(=O)(=O)NC[C@H]2C[C@@H]3CCN2C[C@@H]3c2cc(-c3cccs3)nn2C)c1,inactive
6,Cc1cccc(CN2CCCN(CC(=O)N3CCCC3)S2(=O)=O)c1,inconclusive: 11%
7,COC(=O)C1(C)CCC(OC(C)=O)C2(C)c3c(O)cc(C(C)C)cc3C(O)C(OC(C)=O)C12 (configuration not stated),inconclusive: 13%
8,CCCCOc1ccc(C2C(C#N)=C(N)Oc3c2c(=O)oc2ccccc32)cc1OC (configuration not stated),inactive
9,O=C1NC(=O)C(c2ccccc2)C(=O)N1,inconclusive: 11%
10,COc1ccc([N+](=O)[O-])cc1O,inactive
11,CC1N=C(c2ccccc2)c2ccccc2N(CC(=O)NCCc2ccccc2)C1=O (configuration not stated),inactive
12,COc1ccc(-c2cc([C@H]3CN4CC[C@H]3C[C@@H]4CNC(=O)c3ccc4c(c3)OCO4)n(C)n2)cc1OC,inconclusive: 13%
13,CCOc1ccccc1CN1CCN(c2ccccc2OC)CC1,inconclusive: 13%
14,C=CCN(C)C(=O)[C@H]1CN2CCC1C[C@@H]2Cn1cc(CNC)nn1 (some centres not stated),inconclusive: 13%
15,N#Cc1cccc(NC(=O)N2C[C@@H]3C[C@H](C2)c2c(-c4ccccc4)ccc(=O)n2C3)c1,inconclusive: 25%
16,C=CCOC(=O)N1CCOC2(CNCCOC2)C1 (configuration not stated),inconclusive: 11%
17,Cc1cccc(CN2CCN(c3ccccc3)CC2)c1,inconclusive: 13%
18,COc1ccc(-c2cc([C@H]3CN4CC[C@H]3C[C@@H]4CNC(=O)c3ccc(C)cc3)n(C)n2)cc1OC,inactive
19,N#Cc1cccc(-c2ccc(=O)n3c2[C@@H]2C[C@@H](CN(C(=O)c4ccncc4)C2)C3)c1,inconclusive: 21%

row,Structure (SMILES),inhibition
1,NS(=O)(=O)c1ccc(NC(=O)c2cccn(Cc3ccc(Br)cc3)c2=O)cc1,inactive
2,COc1ccccc1N1CCN(C(=O)[C@H]2CN3CCC2C[C@@H]3Cn2cc(-c3cccc(O)c3)nn2)CC1 (some centres not stated),inconclusive: 12%
3,COC(=O)c1cccc(NC(=S)NC[C@H]2C[C@@H]3CCN2C[C@@H]3c2cc(C3CCCC3)nn2C)c1,inconclusive: 12%
4,CC[C@H]1CN2CC[C@H]1C[C@@H]2CNC(=O)c1ccc2ccccc2c1,inconclusive: 14%
5,O=C1C2CCCN2C(c2cccnc2)N1c1ccc(Cl)c(Cl)c1 (configuration not stated),inconclusive: 14%
6,CC(Cc1ccccn1)N(C)Cc1cc2ccccc2o1 (configuration not stated),inconclusive: 19%
7,Cc1ccc2c(=O)n(-c3ccc(Cl)c(Cl)c3)c(=O)[nH]c2c1,inactive
8,COc1cc(/C=C/[N+](=O)[O-])cc(Br)c1O,inconclusive: 24%
9,CCc1c(-c2ccccc2)nc2ccccc2c1C(=O)N1CCC2(CC1)OCCO2,inconclusive: 16%
10,S=C(NC[C@H]1C[C@@H]2CCN1C[C@@H]2CN1CCN(c2ccccc2)CC1)Nc1ccc(-n2cccn2)cc1,inconclusive: 10%
11,C[N+](C)(C)CC#CCN1CCCC1=O,inconclusive: 16%
12,COc1ccc(OC)c(CNC(=O)c2cn(CC3CCCO3)nn2)c1 (configuration not stated),inactive
13,C#C[C@H]1CN2CC[C@H]1C[C@@H]2CNC(=S)Nc1ccccc1,inconclusive: 14%
14,NC(=O)c1ccc(OCC(O)CN2CC=C(c3ccc(F)cc3)CC2)cc1 (configuration not stated),inactive
15,O=C(NC1CC1)[C@H]1CN2CC[C@H]1C[C@@H]2Cn1cc(-c2cccc(O)c2)nn1,inactive
16,Brc1cccc(CN2CCN(c3ccccc3)CC2)c1,active: 31%
17,O=C(c1cnn2c1CCCC2)N1C[C@@H]2C[C@H](C1)c1cccc(=O)n1C2,inconclusive: 19%
18,CCCCn1c(C)c(C(=O)OCC)c2cc(OC(C)=O)c3ccccc3c21,inactive
19,COc1ccc2c(c1)c(CCN)c(C)n2Cc1ccccc1,active: 38%

# Reference: PubChem BioAssay AID1259354 (Paczesny and Yang Labs, IUPUI and University of Michigan, 2018)
